Our source for the cell number change and AC50 values is PubChem BioAssay AID2685 (National Center for Advancing Translational Sciences (NCATS), 2010).

This is one part of the list. These are further read-outs of the screen, such as a control signal, another cell line or another target. No call is given for them. The list favours compounds with an active or inconclusive main result. Words in brackets tell the shape of the fitted curve; partial curves, single points and poor fits give uncertain potencies.

This assay can be described thus: qHTS Assay for Lipid Storage Modulators in Drosophila S3 Cells.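 On cell number change: cells counted by Cell Tracker Red CMTPX staining in the red channel.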 As to conditions: BODIPY lipid droplet fluorescence, 18-24 h; for cell number change: measured here: cell count max response, cells fed with added oleic acid. The procedure, abridged:
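Laser-scanning cytometry quantifies lipid droplet accumulation (500–530 nm total intensity; droplet/cell object ratio) in oleic acid-fed (400 uM added) Drosophila S3 cells treated with a concentration series. 20 uM Triacsin C defined 100% inhibition.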

The mark [1] stands for this setting: measured here: lipid fluorescence (Fed channel) AC50, cells fed with added oleic acid.
[2] abbreviates: measured here: cell number channel AC50, cells fed with added oleic acid.

A word on the AC50: it is the midpoint of the concentration-response curve, whichever way the signal moves. Lower therefore signals activity at low concentration. For `CC(=O)c1cc(-c2ccccc2)n(CCC(=O)NC2CCCCC2)c1C`, the cell number change worked out at 11.6%. In addition, the AC50 under setting [1] was 0.0731 µM [falling, full curve, poor fit].

As for `O=C(CSc1n[nH]c(-c2ccccc2)n1)Nc1ccc(N2CCOCC2)cc1`, the cell number change is -42.7%.

Regarding `CNc1ccccc1C(=O)OC(C)C(=O)Nc1ccc(S(=O)(=O)N2CCCC2)cc1` (stereo unspecified), the cell number change was -13.6%.

For `O=c1c2c3c(sc2n(CCN2CCOCC2)c(=O)n1Cc1ccco1)CCCCC3`, the cell number change was -0.578%. The AC50 under setting [1] was 0.58 µM [falling, single point].

`Cn1c(=O)n(C)c2cc(/C=N/NC(=O)c3cccc(Br)c3)ccc21`: the cell number change was determined as 35.9%. Further, the AC50 under setting [2] was 0.259 µM [rising, full curve].

Consider `COc1ccc(CCNC(=O)CSc2nnc(CNC(=O)c3ccco3)o2)cc1OC`, for which the cell number change worked out at 10.2%. Besides, the concentration at half-maximal activity (AC50) under setting [1] was 29.1 µM [rising, single point].

In the case of `O=C(CN1CCN(CC(=O)Nc2ccccc2Cc2ccccc2)CC1)Nc1ccccc1Cl`, the cell number change came out at 34.9%. In addition, the AC50 under setting [2] was 14.6 µM [rising, partial curve, poor fit].

On to `CC1CCc2cc(F)cc3c(=O)c(C(=O)O)cn1c23` (stereo unspecified), for which the cell number change is -42%. The AC50 under setting [1] was 29.1 µM [falling, single point].

For the compound `CCNS(=O)(=O)c1ccc(CCC(=O)N2CCN(c3ccc(OC)cc3)CC2)cc1`, the cell number change came to 10.8%.

Take `Cc1cccc(C(=O)NCCCNC(=O)c2ccco2)c1`: the cell number change is -0.952%.

With `Cc1ccc(C(=O)N2CCN(c3ncccn3)CC2)cc1NC1=NC2CS(=O)(=O)CC2S1` (stereo unspecified), the cell number change amounted to 20.5%.

Regarding `Cc1cc(OCC(=O)Nc2cccnc2)c2c(C)c(C)c(=O)oc2c1`, the cell number change is -1.91%.

With `Cc1onc(-c2c(F)cccc2Cl)c1C(=O)O/N=C(\N)c1ccc([N+](=O)[O-])o1`, the cell number change is -33.5%. The AC50 under setting [2] is 14.6 µM [falling, single point]. Also, the AC50 under setting [1] was 29.1 µM [falling, single point].

On to `CCN(CC)S(=O)(=O)c1ccc(Oc2cccc(C(C)=O)c2)nc1`, for which the cell number change was -2.24%.

`CCOC(=O)c1ccc(NC(=O)c2nc[nH]c2C(=O)N[C@@H](CCCCNC(=O)OC(C)(C)C)C(=O)OC(C)(C)C)cc1`: the cell number change was -3.18%. Under setting [1], the half-maximal activity concentration (AC50) is 32.6 µM [falling, single point].

Turning to `COc1ccc(-n2c(=O)[nH]cc(C(=O)N3CCCc4ccccc43)c2=O)cc1`, the cell number change was -1.92%. For the same compound, the AC50 under setting [2] was 6.51 µM [falling, single point].

`CCc1cccc2c(C(=O)CN3C(=O)NC4(CCc5ccccc54)C3=O)c[nH]c12` (stereo unspecified): the cell number change is -50.3%. For the same compound, under setting [2], the AC50 is 11.6 µM [falling, partial curve]. Also, the half-maximal activity concentration (AC50) under setting [1] is 5.8 µM [falling, single point].

With `CC/C(=C/c1ccccc1)c1cccc2[nH]c3c(OC)cccc3c12`, the cell number change is 15.9%. The AC50 under setting [1] is 29.1 µM [rising, single point].

Regarding `COC(=O)CN1C(=O)[C@H]2[C@@H](c3ccc(C)o3)N3C(=O)CN(Cc4ccccn4)C(=O)[C@@]3(C)[C@H]2C1=O`, the cell number change was 3.29%. Moreover, under setting [1], the AC50 was 29.1 µM [falling, single point].

For `COc1ccc(NC(=O)C2CCC(CNc3c(N4CCOCC4)c(=O)c3=O)CC2)cc1Cl` (stereo unspecified), the cell number change is -3.94%. Moreover, the AC50 under setting [2] was 0.0259 µM [falling, full curve, poor fit].

Take `c1ccc(CN2CCC3(CC2)Nc2ccccc2CO3)cc1`: the cell number change was -87.7%. In addition, under setting [2], the AC50 was 29.1 µM [falling, single point]. Also, under setting [1], the AC50 is 2.59 µM [falling, partial curve].

Turning to `Cc1ccc(S(=O)(=O)NNC(=O)Nc2cccc3ccccc23)cc1`, the AC50 under setting [1] is 6.51 µM [rising, single point].

Regarding `CCCOc1ccc(NC(=O)CNC(=O)c2cc(OC)cc(OC)c2)cc1OCCC`, the cell number change amounted to 3.28%. Moreover, under setting [1], the AC50 is 8.2 µM [rising, partial curve].

In the case of `CC[n+]1c(C=C2C=C(C)OC(C)=C2)sc2ccccc21`, the cell number change was -68%. Moreover, under setting [2], the AC50 was 1.84 µM [falling, partial curve]. Besides, the half-maximal activity concentration (AC50) under setting [1] is 3.66 µM [falling, full curve].

In the case of `C=CCN(c1ccccc1)S(=O)(=O)c1cc2c(cc1C)NC(=O)CO2`, the cell number change was 5.48%. For the same compound, the AC50 under setting [1] was 0.0651 µM [rising, full curve, poor fit].

As for `N#Cc1ccc(CSc2nnc(COc3ccccc3)n2-c2ccccc2)cc1`, the AC50 under setting [1] was 0.146 µM [rising, full curve, poor fit].

As to `O=C(CSc1nnc(NC(=O)c2ccccc2F)s1)NCc1ccc(F)cc1`, the cell number change was -22.8%. For the same compound, the concentration at half-maximal activity (AC50) under setting [1] is 29.1 µM [rising, single point].

For the compound `COc1c(C)cc(S(=O)(=O)NCCN2CCOCC2)c(C)c1C`, the cell number change was 8.14%. In addition, the AC50 under setting [1] was 29.1 µM [rising, single point].

Turning to `CCCC(=O)NNC(=O)c1ccoc1C`, the cell number change is -16.1%. Besides, the AC50 under setting [1] is 0.184 µM [falling, full curve, poor fit].

With `Cc1nn(Cc2ccccc2)c(Cl)c1C(=O)NCCc1ccc(Cl)cc1`, the cell number change is 5.63%. Moreover, under setting [1], the AC50 was 1.03 µM [rising, full curve, poor fit].

In the case of `O=C(Cn1nc(Cc2cccnc2)c2ccccc2c1=O)NCC1COc2ccccc2O1` (stereo unspecified), the cell number change is -8.78%. Under setting [1], the AC50 was 6.51 µM [rising, partial curve].

Regarding `CN(C)C(=S)Nc1nc2ccccc2s1`, the cell number change was -18.3%. Under setting [2], the AC50 was 0.00651 µM [falling, full curve, poor fit].

As to `O=C(/C=C\Nc1ccc(Br)cc1)c1cccnc1`, the cell number change stood at 13%.

With `CCC(C)(C)NC(=O)C(c1ccc(C)o1)N(Cc1cccs1)C(=O)Cn1nnc2ccccc21` (stereo unspecified), the cell number change is -26.9%. Besides, under setting [1], the AC50 is 0.103 µM [rising, full curve, poor fit].

Regarding `CCOC(=O)/C=C/C(=O)OCc1csc(CC(=O)Nc2ccccc2C)n1`, the AC50 under setting [1] is 5.17 µM [falling, single point].

As to `C=CCNc1nc2c(c(=O)n(C)c(=O)n2C)n1CCCCCC`, the cell number change was -121%. In addition, the AC50 under setting [2] is 29.1 µM [falling, single point]. The AC50 under setting [1] was 29.1 µM [falling, single point].

Regarding `COc1cc(Cl)ccc1OCc1cc(C(=O)N2C[C@H]3CC[C@H]2C3)no1`, the cell number change was -1.74%. Further, under setting [1], the AC50 is 0.0731 µM [rising, full curve, poor fit].

Take `O=C(NCc1cccnc1)c1c[nH]c2cc3c(cc2c1=O)OCCO3`: the cell number change was -60%. Moreover, under setting [2], the half-maximal activity concentration (AC50) is 11.6 µM [falling, partial curve, poor fit]. In addition, the concentration at half-maximal activity (AC50) under setting [1] is 32.6 µM [falling, single point].
